Where a name gives a salt, the structure may show the parent alone.
Key:
male Wistar rats [1] = test: ORT, natural forgetting, co-administration of sub-efficacious doses of AP61 and donepezil; assay type: in vivo, rat; details: AP61 0.01 mg/kg p.o. 4 min after T1 and/or donepezil 0.1 mg/kg p.o. 30 min before T1; 24 h delay; mean (SEM)
male Wistar rats [2] = test: Object recognition task (ORT), natural forgetting, 24-h interval; assay type: in vivo, rat; details: 24 h delay, mean (SEM)
Experimental: In example 1, the compound AP-61 a 7-(4-tert butyl-cyclohexyl)-imidazotriazione (a compound of the formula II) was tested in the ORT in 3-4 month old male Wistar rats using a 24-h interval between the trials to induce natural forgetting.
One group of twenty four 3-4 month old male Wistar rats (Charles River, Sulzfeld, Germany) were used (average body weight at the beginning of the study: 365 g). All animals were housed individually in standard green line Tecniplast IVC cages on sawdust bedding. The animals were housed on a reversed 12/12-h light/dark cycle (lights on from 19:00 h to 07:00 h) and had free access to food and water. The rats were housed and tested in the same room. A radio, playing softly, provided background noise in the room. All testing was performed between 09:00 h and 18:00 h.
AP-61 was dissolved in 0.5% methylcellulose (MC) and 2% Tween 80. The solutions were prepared daily. Doses of 0.01, 0.03 and 0.1 mg/kg of AP-61 or vehicle were administered p.o. (injection volume was 2 ml/kg), immediately after T1. Of note, PDE4 inhibition effects only late consolidation in the ORT, i.e. at about 3 h after T1 (Rutten et al., 2007).
The ORT was performed as described elsewhere (Ennacour and Delacour, 1988). The apparatus consisted of a circular arena, 83 cm in diameter. Half of the 40 cm high wall was made of gray polyvinyl chloride, the other half of transparent polyvinyl chloride. Fluorescent red tubes and a light bulb provided a constant illumination of about 20 lux on the floor of the apparatus.
Two objects were placed in a symmetrical position about 10 cm away from the gray wall. Four objects were used: 1) a standard 1 L brown transparent glass bottle (diameter 10 cm, height 22 cm) filled with water, 2) a metal cube (10.0×5.0×7.5 cm) with two holes (diameter 1.9 cm), 3) a cone consisting of a gray polyvinyl chloride base (maximal diameter 18 cm) with a collar on top made of brass (total height 16 cm), and 4) an aluminum cube with a tapering top (13.0×8.0×8.0 cm). A rat could not displace the objects.
A testing session comprised two trials, each with durations of 3 min. During T1 the apparatus contained two identical objects (samples). A rat was always placed in the apparatus facing the wall at the middle of the front (transparent) segment. After T1 the rat was put back in its home cage for a 24-h interval. Subsequently, the rat was put back in the apparatus for T2, but now with a familiar object from T1 (the sample) and a new object. The times spent in exploring each object during T1 and T2 were recorded manually with a personal computer.
Exploration was defined as follows: directing the nose to the object at a distance of no more than 2 cm and/or touching the object with the nose. Sitting on the object was not considered as exploratory behavior. In order to avoid the presence of olfactory cues, the objects were thoroughly cleaned after each trial and three sets of objects were used. All combinations and locations of objects were used in a balanced manner to reduce possible biases due to preferences for particular locations of objects.
Prior to compound testing studies, the animals were handled daily, adapted to the procedure, and allowed to explore the apparatus.
The measures were the times spent by rats in exploring each object during T1 and T2. The time spent in exploring the two identical samples in T1 were represented by ‘a1’ and ‘a2’, respectively. The time spent in exploring the sample and the new object in T2 were represented by ‘a’ and ‘b’, respectively. From these exploration times the following variables were calculated: e1, e2 and d2 (Table 1). The minimum level of exploration needed for a reliable memory performance is 7 s (Akkerman et al., 2012). When exploration was below this cut-off, rats were removed from the analysis. Furthermore, the d2 index is a relative measure of discrimination corrected for exploratory activity. […]

[3] = AP61 0.01 mg/kg p.o. immediately after T1
[4] = AP61 0.03 mg/kg p.o. immediately after T1
[5] = AP61 0.1 mg/kg p.o. immediately after T1

Row | Structure (SMILES) | e1, total exploration time during T1 (male Wistar rats [1]) | e2, total exploration time during T2 (male Wistar rats [1]) | e1, total exploration time during T1 (male Wistar rats [2]; [3]) | e2, total exploration time during T2 (male Wistar rats [2]; [3]) | e1, total exploration time during T1 (male Wistar rats [2]; [4]) | e2, total exploration time during T2 (male Wistar rats [2]; [4]) | e1, total exploration time during T1 (male Wistar rats [2]; [5]) | e2, total exploration time during T2 (male Wistar rats [2]; [5])
1 | COc1cc2c(cc1OC)C(=O)C(CC1CCN(Cc3ccccc3)CC1)C2 (stereo not shown) [donepezil, 1-benyZl-4-[(5,6-dimethoxy-1-indanon)-2-yl]methylpiperidine monohydrochloride, reference compound] | 45.72 (1.89) s | 46.54 (1.62) s | – | – | – | – | – | –
2 | CCc1nc(C2CCC(C(C)(C)C)CC2)n2nc(-c3ccccc3)[nH]c(=O)c12 (stereo not shown) [AP61, 7-(4-tert-butylcyclohexyl)-5-ethyl-2-phenylimidazo[5,1-f][1,2,4]triazin-4(3H)-one] | 45.00 (1.77) s | 47.45 (2.49) s | 21.88 (1.78) s | 24.54 (1.79) s | 18.88 (1.48) s | 22.58 (1.69) s | 22.44 (1.55) s | 22.34 (2.01) s
